# Test results taken from the supplement of paper PMC11732987, “Enantioselective OTUD7B fragment discovery through chemoproteomics screening and high-throughput optimisation” (Communications Chemistry, 2025).
# This is one part of the list. The data scatter; read single values as rough.
# Test system: T1, NCAM1 C829
# T1 sequence (whole entry): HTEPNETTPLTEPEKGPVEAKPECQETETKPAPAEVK
# Test: log2 mean competition ratio of IA-DTB cysteine labelling (DMSO/compound) (log2 ratio); higher = stronger cysteine engagement by compound
# Details: 50 µM; treatment time: 4 h; cell line lysate: HEK293T
# Experimental: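 IA-DTB competitive cysteine chemoproteomics in HEK293T RIPA lysate. Lysates were treated with compound 29 or 30 at 50 or 200 µM for 4 h, then IA-DTB (500 µM, 1 h), trypsin-digested, NeutrAvidin-enriched and analysed by diaPASEF. Competition ratio = intensity DMSO / intensity compound (n=4 treated, n=64 DMSO); binding: mean log2 CR ≥ 1 and p ≤ 0.05 plus QC filters. Target is the cysteine site.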
row,Compound,log2 mean competition ratio
1,O=C(CCl)N[C@@H]1CCCc2ccccc21,-0.256
2,O=C(CCl)N[C@H]1CCCc2ccccc21,-0.323

# Same assay, conditions: 200 µM; treatment time: 4 h; cell line lysate: HEK293T
row,Compound,log2 mean competition ratio
1,O=C(CCl)N[C@@H]1CCCc2ccccc21,-0.265
2,O=C(CCl)N[C@H]1CCCc2ccccc21,-0.576
